The record followed here is PMC4426631, “Insect antimicrobial peptides show potentiating functional interactions against Gram-negative bacteria” (Proceedings of the Royal Society B: Biological Sciences, 2015).

Chains of the proteins cited; added tags and fusions are not shown.
UniProt P0A6Y8: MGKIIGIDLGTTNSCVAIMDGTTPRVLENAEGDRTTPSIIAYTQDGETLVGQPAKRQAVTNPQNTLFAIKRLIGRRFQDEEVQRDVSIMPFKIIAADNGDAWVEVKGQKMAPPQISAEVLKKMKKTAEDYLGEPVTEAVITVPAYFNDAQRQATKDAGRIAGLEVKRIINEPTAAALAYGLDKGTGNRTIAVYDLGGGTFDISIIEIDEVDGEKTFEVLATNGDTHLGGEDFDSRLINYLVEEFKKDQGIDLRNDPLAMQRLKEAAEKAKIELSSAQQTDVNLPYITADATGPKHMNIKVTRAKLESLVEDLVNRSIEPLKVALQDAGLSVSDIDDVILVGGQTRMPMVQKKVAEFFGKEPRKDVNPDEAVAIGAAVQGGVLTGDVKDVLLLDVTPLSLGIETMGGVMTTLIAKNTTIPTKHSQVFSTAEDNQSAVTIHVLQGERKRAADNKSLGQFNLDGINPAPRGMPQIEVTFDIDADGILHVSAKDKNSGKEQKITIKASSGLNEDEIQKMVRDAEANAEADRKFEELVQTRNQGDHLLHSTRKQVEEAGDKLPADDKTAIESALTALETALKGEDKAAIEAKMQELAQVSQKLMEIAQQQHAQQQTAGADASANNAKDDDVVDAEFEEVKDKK

No constants are given. Whether binding was seen depends on the method and setting.

The target of assay [1] is T1, metalnikowin IIA from Palomena prasina, fluorescein-labelled (Palomena prasina) (UniProt P80409).
T1 sequence (peptide, fluorescein-modified): VDKPDYRPRPWPRPN
Put plainly: condition: DnaK–BHQ10 dilution series 0.8–13 000 nmol l^−1; FRET or BRET; FRET-based quenching assay in solution: fluorescein-modified peptide (50 μl, 1.3 nmol l^−1) mixed with a serial dilution of DnaK–BHQ10 (50 μl, 0.8–13 000 nmol l^−1, 1 : 4 dilution series) in modification buffer (20 mmol l^−1 Na2HPO4, 20 mmol l^−1 KH2PO4, 5 mmol l^−1 MgCl2, 150 mmol l^−1 KCl, pH 7.4), black 384-well plate, incubated 2 h; Kd by nonlinear regression; both purified.

Assay [2] concerns the target T2, metalnikowin I from Palomena prasina, fluorescein-labelled (Palomena prasina) (UniProt P80408).
T2 sequence (peptide, fluorescein-modified): VDKPDYRPRPRPPNM
The assay is described as above.

In the case of “Escherichia coli chaperone DnaK labelled with BHQ10 (DnaK–BHQ10) (from UniProt P0A6Y8 1-638)”, the binding result in assay [1] and in assay [2] was “no binding” in each case.
